Source: PubChem BioAssay AID2685 (National Center for Advancing Translational Sciences (NCATS), 2010)
The other results are listed elsewhere or left out. These are further read-outs of the screen, such as a control signal, another cell line or another target. No call is given for them. The list favours compounds with an active or inconclusive main result. The note in brackets gives the kind of curve behind each potency; many fits are weak.

Test: qHTS Assay for Lipid Storage Modulators in Drosophila S3 Cells;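 for cell number change: cells counted by Cell Tracker Red CMTPX staining in the red channel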
Conditions: BODIPY lipid droplet fluorescence, 18-24 h; for cell number change: measured here: cell count max response, cells fed with added oleic acid
Method in brief: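 Drosophila S3 cells loaded with oleic acid (400 uM, as added) and compounds at several concentrations; lipid droplets imaged by 488-nm laser-scanning cytometry, 500–530 nm intensity and object ratio to cell channel. Percent activity normalized to 20 uM Triacsin C.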

[1] = measured here: cell number channel AC50, cells fed with added oleic acid
[2] = measured here: lipid fluorescence (Fed channel) AC50, cells fed with added oleic acid

| Compound | cell number change | AC50 [1] | AC50 [2] |
| --- | --- | --- | --- |
| COc1ccc(C(=O)N(CC2CCCO2)C(C(=O)NCCC(C)C)c2ccc(C)cc2)cc1OC (centres undefined) | -4.03% | 0.116 µM [falling, partial curve, poor fit] | – |
| Cc1ccc(C)c(N2CCN(C(=O)c3cc(S(=O)(=O)N4CCCC4)cn3C)CC2)c1 | 10.1% | – | 29.1 µM [falling, single point] |
| O=C(CSc1nnc(C2CCCCC2)o1)Nc1ccccc1Cl | 12.6% | – | 29.1 µM [rising, partial curve, poor fit] |
| Cc1nc2c(C#N)cnn2c2c1CCN2CC1CCCO1 (centres undefined) | 17.2% | – | 29.1 µM [rising, partial curve] |
| CC(=O)Nc1ccc(NC(=O)C(Sc2ccccc2)c2ccccc2)cc1 (centres undefined) | 26.1% | – | 32.6 µM [falling, single point] |
| CCCN1CCN(c2ncnc3scc(C4COc5ccccc5O4)c23)CC1 (centres undefined) | -9.54% | – | 23.1 µM [falling, single point] |
| Cc1nc(COc2cc3oc(=O)cc(C)c3cc2Cl)cs1 | -4.5% | – | – |
| Cc1cc(C)cc(N2CN=c3s/c(=C\c4ccco4)c(=O)n3C2)c1 | 5.17% | – | – |
| COCCn1nc2cc(C(=O)NCc3cc(C(F)(F)F)cc(C(F)(F)F)c3)ccc2c1OC | -9.87% | – | – |
| CCCN(CCC)c1nc(N)nc(-c2cc(Cl)ccc2OC)n1 | 0.13% | – | 3.66 µM [falling, partial curve] |
| COc1ccc(S(=O)(=O)NC(C)C(=O)NCc2ccncc2)cc1OC (centres undefined) | 18.9% | – | 29.1 µM [rising, single point] |
| Brc1cccc(C2Nc3cccc4cccc(c34)N2)c1 | -23.8% | – | 2.91 µM [rising, single point] |
| COc1ccc(C(=O)n2nc(C)c(Br)c2C)cc1OC | 2.13% | – | 1.84 µM [falling, partial curve] |
| COc1ccc(NC(=O)c2ccccc2OCc2ccc(F)cc2)c(OC)c1 | 5% | – | 0.116 µM [rising, partial curve, poor fit] |
| CCN1CCN(CC(=O)N/N=C/c2cc(Br)cs2)CC1 | 3.89% | – | – |
| CC1(C)C(=O)C2(C(=O)NCc3ccccc3)CCC1C2 (centres undefined) | -0.86% | – | 0.0517 µM [falling, full curve, poor fit] |
| Cc1ccc(NC(=S)NCc2ccccc2Cl)c(C)c1 | 1.55% | – | – |
| CCN1C(=O)C(CC(=O)Nc2ccc(F)cc2)N(CCCN2CCN(c3ccc(F)cc3)CC2)C1=S (centres undefined) | -64.3% | 29.1 µM [falling, single point] | 29.1 µM [falling, single point] |
| Cn1c(CNC(=O)CNC(=O)c2ccccc2)cc(=O)n(C)c1=O | 16.7% | – | 20.6 µM [rising, single point] |
| CCNc1nc(C23CC4CC(CC(C4)C2)C3)cs1 | -49.4% | 23.1 µM [falling, partial curve] | 32.6 µM [falling, partial curve, poor fit] |

| Compound | cell number change | AC50 [1] | AC50 [2] |
| --- | --- | --- | --- |
| CC[n+]1cc(-c2ccccc2)nc(N2CCOCC2)n1 | 1.73% | – | 5.8 µM [rising, single point] |
| COC(=O)c1cc(OC)c(OC)cc1NC(=O)c1ccc(C)cc1 | 17.4% | – | – |
| CCN(CC(=O)NCc1ccc(F)cc1)S(=O)(=O)c1ccc(C)cc1 | 6.97% | – | – |
| CCOC(=O)NC1(C(F)(F)F)NC(=O)N(C2CCCCC2)C1=O (centres undefined) | -87.5% | 18.4 µM [falling, single point] | 23.1 µM [falling, single point] |
| CCOC(=O)[C@H]1[C@H]2COc3ccc(Cl)cc3[C@@H]2N2C(=O)c3cc(Br)ccc3NC(=O)[C@@]12C | -19% | 3.66 µM [falling, single point] | 5.8 µM [falling, single point] |
| COc1ccc(NC(=O)N2C3CCCC2CC(NC(=O)C2CC2)C3)cc1 (centres undefined) | 14.2% | – | 1.16 µM [rising, single point] |
| COc1ccc(-c2csc(N(CCCN(C)C)C(=O)c3ccccc3F)n2)cc1 | -20.1% | – | 29.1 µM [falling, single point] |
| OCCCn1c(-c2ccccc2)nc(=S)c2c1CCCC2 | -36.5% | 23.1 µM [falling, single point] | 18.4 µM [rising, partial curve, poor fit] |
| CCOC(=O)CNC(=O)Cn1cnc2c(nnn2-c2ccc(C)cc2)c1=O | -4.03% | – | 6.51 µM [falling, single point] |
| O=C(O)CNC(=O)CC12CC3CC(CC(C3)C1)C2 | -22.7% | – | 0.82 µM [falling, full curve, poor fit] |
| COC(=O)C(Cc1ccccc1)NC(=S)NC(=O)c1ccccc1 (centres undefined) | 39.4% | 4.61 µM [rising, single point] | 29.1 µM [rising, single point] |
| O=c1c2ccccc2nc(-c2ccco2)n1CCCn1ccnc1 | 20.7% | – | 11.6 µM [rising, partial curve] |
| COc1ccc(CCCC(=O)Nc2ccc(F)cc2)cc1 | 28.8% | – | 29.1 µM [rising, single point] |
| Nc1nc(NC(=O)CCC(=O)O)nn1-c1ccccc1 | -12.4% | 6.51 µM [falling, single point] | 3.66 µM [falling, single point] |
| C=C(C)Cn1c(=O)c(NC(=O)c2ccccc2)c2n(c1=S)CCC2 | 13.7% | – | 0.58 µM [rising, full curve, poor fit] |
| N#Cc1cc(-c2ccccc2)nn1-c1ccccc1 | – | 6.51 µM [rising, single point] | 1.03 µM [rising, full curve] |
| CCOc1ccc(CN2CCNC(=O)C2CC(=O)NC2CCCCCC2)cc1 (centres undefined) | 35.6% | 32.6 µM [rising, single point] | – |
| CCOC(=O)C1CCN(C(=O)CCCCn2c(=O)[nH]c3ccccc3c2=O)CC1 | -28.4% | – | 29.1 µM [falling, partial curve, poor fit] |
| COc1cccc(CNc2nc(SC)ncc2CO)c1 | 1.92% | – | 7.31 µM [rising, partial curve] |
| COc1ccc(-c2nc(CN3CCC(C(=O)N4CCc5ccccc54)CC3)c(C)o2)cc1OC | 4.64% | – | – |

Shown bar-delimited: two of the compounds above.
Compound | cell number change | AC50 [1] | AC50 [2]
C=C(C)Cn1c(=O)c(NC(=O)c2ccccc2)c2n(c1=S)CCC2 | 13.7% | – | 0.58 µM [rising, full curve, poor fit]
CCOC(=O)C1CCN(C(=O)CCCCn2c(=O)[nH]c3ccccc3c2=O)CC1 | -28.4% | – | 29.1 µM [falling, partial curve, poor fit]

Next part:

| Compound | cell number change | AC50 [1] | AC50 [2] |
| --- | --- | --- | --- |
| CC1(C(=O)O)C=CC2(CCCCC2)N1C(=O)c1ccccc1 (centres undefined) | -38.9% | 14.6 µM [falling, partial curve] | 2.06 µM [rising, full curve] |
| O=C(CSc1nnc(NC(=O)C2CCC2)s1)Nc1ccccc1Br | 19.6% | – | 6.51 µM [rising, single point] |
| CC(=O)c1ccccc1NS(C)(=O)=O | 19.9% | – | 11.6 µM [rising, partial curve] |
| COCCCn1cc(C(=O)c2cc(OC)ccc2OCC(=O)Nc2cc(C)on2)cc(C#N)c1=O | 8.18% | – | 11.6 µM [rising, partial curve] |
| CN1CCN(S(=O)(=O)c2ccc3c(c2)OCCO3)CC1 | -52.7% | 1.46 µM [falling, full curve] | 6.51 µM [falling, single point] |
| COc1ccc(NC(=O)c2cccc(S(=O)(=O)N(C)c3ccccc3)c2)cn1 | -29.1% | 7.31 µM [falling, partial curve] | – |
| O=C1Nc2ccccc2C1(O)Cc1ccncc1 (centres undefined) | – | – | 14.6 µM [falling, partial curve] |
| COc1ccc(OC)c(NC(=O)COC(=O)c2c3c(nc4ccccc24)CCCC3)c1 | 23.5% | 4.61 µM [rising, full curve, poor fit] | 1.64 µM [rising, partial curve] |
| Cc1ccc(S(=O)(=O)NCCCN2CCCC2)cc1 | – | – | 29.1 µM [rising, single point] |
| O=C(CSc1nc2ncccc2[nH]1)Nc1ccccc1-c1ccccc1 | -12.5% | – | 29.1 µM [falling, single point] |
| O=C(/N=C1\NC(=O)C(F)(C(F)(F)F)S1)NC1CCCCC1 (centres undefined) | – | 1.46 µM [falling, partial curve, poor fit] | – |
| CCOc1ccc(N(C(=O)CNC(=O)c2ccco2)C(C(=O)NCC2CCCO2)c2ccccc2)cc1 (centres undefined) | -7.69% | – | – |
| O=C(NC1(C(F)(F)F)NC(=O)N(C2CCCCC2)C1=O)c1ccco1 (centres undefined) | -3.51% | – | 0.731 µM [falling, single point] |
| CC1CCCCC12NC(=O)N(CC(=O)NCCc1ccccn1)C2=O (centres undefined) | 0.182% | 0.164 µM [falling, full curve, poor fit] | 0.731 µM [falling, partial curve, poor fit] |
| CCOc1ccc(N(CC(=O)NC2CCCCCC2)S(=O)(=O)c2c(C)noc2C)cc1 | 0.781% | – | 6.51 µM [falling, single point] |
| Nn1cnc2c([nH]c3ccccc32)c1=O | -8.43% | – | 8.2 µM [falling, single point] |
| O=C(c1ccccc1F)N1CCN(S(=O)(=O)c2ccc3c(c2)OCCO3)CC1 | 38.2% | 16.4 µM [rising, single point] | – |
| CCN1C(=S)SC(=O)C1=C1C=C(C)N(Cc2ccco2)C(C)=C1 | -15.9% | – | 14.6 µM [falling, partial curve, poor fit] |
| COc1ccc(Cc2nc3ccc(C(=O)NCC4COCCO4)cc3o2)cc1OC (centres undefined) | 3.88% | – | 4.61 µM [falling, full curve] |
| CC1Cc2cc(S(=O)(=O)N3CCC(C(=O)N(C)Cc4ccccc4)CC3)ccc2N1C(=O)C1CC1 (centres undefined) | -5.27% | – | 6.51 µM [falling, single point] |
